# Library screening results

Protein sequences, listed by entry. Tags and fused reporters are not part of them.
UniProt E9BF75, entry or part of it: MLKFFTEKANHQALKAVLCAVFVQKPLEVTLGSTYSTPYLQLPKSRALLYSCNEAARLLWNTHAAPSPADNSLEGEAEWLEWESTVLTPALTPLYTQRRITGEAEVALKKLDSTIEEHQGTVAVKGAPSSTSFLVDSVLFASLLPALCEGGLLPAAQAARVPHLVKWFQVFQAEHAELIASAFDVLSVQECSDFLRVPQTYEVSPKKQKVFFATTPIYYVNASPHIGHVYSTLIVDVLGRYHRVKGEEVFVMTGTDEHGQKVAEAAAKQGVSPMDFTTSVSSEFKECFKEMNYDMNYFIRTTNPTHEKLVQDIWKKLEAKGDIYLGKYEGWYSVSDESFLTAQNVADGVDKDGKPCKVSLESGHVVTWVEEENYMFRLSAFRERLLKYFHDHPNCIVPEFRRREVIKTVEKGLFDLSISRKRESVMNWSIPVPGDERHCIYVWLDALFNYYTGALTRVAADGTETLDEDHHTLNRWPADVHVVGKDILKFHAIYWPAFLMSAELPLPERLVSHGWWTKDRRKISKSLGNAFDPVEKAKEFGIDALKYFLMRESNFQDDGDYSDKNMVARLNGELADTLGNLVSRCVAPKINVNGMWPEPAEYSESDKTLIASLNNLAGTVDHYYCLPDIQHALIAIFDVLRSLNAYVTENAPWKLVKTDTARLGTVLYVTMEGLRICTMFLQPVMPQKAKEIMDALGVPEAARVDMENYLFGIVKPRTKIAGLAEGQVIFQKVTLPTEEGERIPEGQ

Source: ChEMBL document CHEMBL3988442, “University of Dundee, Small-Polar-MMV Screening Library” (2021).

LdMetRS: 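Primary screen of methionyl-tRNA synthetase; the read-out is not stated. Target: Methionyl-tRNA synthetase (putative), Leishmania donovani (UniProt E9BF75). The test concentration is not given. Values are per cent inhibition. About 68,000 compounds were tested under these conditions; 0.035% (about 24) showed 50% or more at least once.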
Mtb heat-shock: 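Assay on Mycobacterium tuberculosis, filed only as a heat shock assay from Cornell; the read-out is not stated. The concentration is filed as 10 mM, unlikely as a test dose, so the dose is not known. Higher reads as stronger inhibition (inferred: compounds with an IC50 in retests scored well above the rest). Size under these conditions: about 69,000 compounds, about 930 of them at 50% or above in at least one test.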

Results are percentages, as filed. The controls that fix the scale are not given in the record; negative values are as filed. The compounds are a random part of those screened. A dash means the value is not listed here; it may have been measured.

compound | LdMetRS | Mtb heat-shock
CCc1ccc(CN2CCN(Cc3ncc[nH]3)[C@H]3CS(=O)(=O)C[C@H]32)nc1 | 8.877% | -
O=C(c1ccccc1-c1nnn[nH]1)N1CCOC(C(F)(F)F)C1 (centres unmarked) | 11.62% | 3.228%
CCc1nnc2n1CCN(C(=O)c1nc(-c3ccco3)sc1C)C2 | 20% | -19.13%
O=c1c(NCCNCCO)c(N2CCN(c3ccc(F)cc3)CC2)c1=O | 16.33% | -37.27%
CCn1c(C2CCCN(S(=O)(=O)C3CC3)C2)nn(CCN(C)C)c1=O (centres unmarked) | 18.06% | -7.581%
O=C(NCc1ccc(CN2CCCC2)cc1)NCc1ccon1 | 13.04% | -10.76%
Cc1ccc(N2CCCC(NCc3sccc3C)C2)nn1 (centres unmarked) | 18.8% | -8.647%
COCCN1CC(C(=O)NCc2ccc(C)s2)CC1=O (centres unmarked) | 8.239% | -5.085%
CSCC[C@@H](CO)NC(=O)c1sc(-c2ccccc2Cl)nc1C | 6.97% | 9.615%
CN(C(=O)C1CCCC1)C(c1cccc(F)c1)c1ccccn1 (centres unmarked) | 4.545% | -10.47%
CCOC(=O)N1CCN(C(=O)C2Cc3ccccc3CN2C)CC1 (centres unmarked) | 3.817% | -3.528%
Cc1cc(C)cc(OCn2ccc(C(=O)O)n2)c1 | 0.7538% | 9.764%
COc1ccc(C(=O)N2CCOC3(CNCCOC3)C2)c(OC)n1 (centres unmarked) | 13.38% | -15.08%
COc1cccc(-c2n[nH]cc2C(=O)NC(C)c2nc(C(C)C)no2)c1 (centres unmarked) | 16.45% | -26.94%
CN(C)Cc1cc(C2CCCCN2S(=O)(=O)Cc2ccccc2)nn1C.Cl (centres unmarked) | - | -25.85%
COc1ccc(N(C)Cc2nc3c(cnn3C)c(=O)[nH]2)cc1OC | 23.21% | -1.979%
CC1Oc2c(cccc2C(=O)N2CCCCCC2)NC1=O (centres unmarked) | 14.42% | -12.09%
O=C(O)C(F)(F)F.[H][C@@]12CCCO[C@]1([H])[C@H](N(C)Cc1ccco1)CN(C(=O)c1ccnnc1)C2 | - | -25.02%
CC(C)OCCS(=O)(=O)NC1CCN(C2CCCC2)C1 (centres unmarked) | -8.333% | -23.9%
CC(C)Cc1nc(CN(C)CCOc2ccc(F)cc2)no1 | 14.29% | 4.83%
CCc1nc(C(=O)N2CCCCC2)nn1-c1ccccc1Cl | 22.29% | -0.5459%
O=C(CCS(=O)(=O)C1CCCC1)NCCc1cccnc1 | 10.07% | 6.498%
N#CCCN(CCC#N)C(=O)c1cccc(N2CCNC2=O)c1 | 12.54% | 8.951%
Cc1c[nH]c(CN2CC[C@@]3(O)CCN(C(=O)C4CCCC4)C[C@H]3C2)n1 | 5.292% | -
Cc1nc(CN2CCN(C(=O)c3ccnc(N(C)C)c3)CC2)cs1 | 17.49% | -30.56%
CCN1CCC12CCN(C(=O)c1cc(C)on1)C2.O=C(O)C(F)(F)F (centres unmarked) | - | 1.397%
CCNC(=O)N1C[C@@H]2OCC(=O)N(C(C)C)[C@@H]2C1 | 0.7519% | -
Cc1[nH]c2ccc(C#N)cc2c1CCNc1ncnc2c1CCNCC2 | 13.9% | 7.503%
CC(=O)CSc1nnc2n1N=CN(c1cccc(Cl)c1)C2 | 19.47% | 17.57%
CN(C)Cc1cc(=O)n2c(n1)CN(S(=O)(=O)C1CC1)CCC2.O=C(O)C(F)(F)F | - | 14.69%
Cc1cc(C(=O)NCc2ccnc(OCC(F)(F)F)c2)no1 | 18.58% | -10.01%
O=c1cc(CNS(=O)(=O)C2CC2)nc2n1CCCN(CC1CC1)C2 | 11.73% | -
Cc1noc(CCCNC(=O)N2CCc3ccccc3C2CO)n1 (centres unmarked) | -2.957% | -16.96%
COc1nonc1NCn1nc(C)cc1C | 1.892% | -35.41%
Cc1nc(CN2CCOCC2c2[nH]ncc2C)cs1 (centres unmarked) | 14.53% | 12.36%
[H][C@]12CCC(=O)N[C@@]1(C)CCCCN2Cc1ccc(F)c(OC)c1 | - | -12.72%
CN(CC1(C)COC1)C(=O)c1cc(-c2ccn(C)n2)nc2ccccc12 | -1.246% | -2.301%
c1cnc2c(c1)cc([C@@H]1CCCO1)n2CCN1CCCCC1 | 20.83% | -
NC(=O)C1CN(C(=O)Nc2ccccc2N2CCCCCC2)CCO1 (centres unmarked) | 11.75% | 6.28%
CN(C(=O)CN1CCCc2cc(F)cc(F)c21)c1ccccc1 | 6.522% | 17.94%
CN(Cc1nc(-c2cccnc2)no1)C(=O)c1c2c(nn1C)CCCC2 | 13.94% | -3.65%
Cc1noc(C)c1C(=O)N1CCOC2(COCCN(C(C)C)C2)C1 (centres unmarked) | 7.273% | -
Cc1nn(C)c(C)c1C1CCCN1C(=O)c1ccnc(N(C)C)c1 (centres unmarked) | 16.57% | 12.31%
CCC1=N[C@@]2(CC[C@@H]3CN(Cc4ccc(C)cc4)C[C@@H]32)C(=O)N1C | 6.202% | -
O=C1NCC2(CCCN(C(=O)c3ccc4c(c3)OCCO4)CC2)O1 (centres unmarked) | 10% | -25.8%
Cc1ccc(-n2c(COCC(=O)O)nc3c(C)cccc32)nc1 | 13.25% | -2.018%
CCS(=O)(=O)N1CCC2(CC(=O)N(c3cncnc3)C2)C1 (centres unmarked) | 17.04% | -9.989%
CC(NC(=O)C1CN(c2ncnc3c2nnn3C)C1)c1ccccc1 (centres unmarked) | 13.24% | 22.13%
CN1CCc2nc(C3CCCN(S(=O)(=O)c4ccccc4)C3)ncc2C1 (centres unmarked) | 15.7% | 2.454%

The first 3 entries again:

- CCc1ccc(CN2CCN(Cc3ncc[nH]3)[C@H]3CS(=O)(=O)C[C@H]32)nc1 : LdMetRS: 8.877%
- O=C(c1ccccc1-c1nnn[nH]1)N1CCOC(C(F)(F)F)C1 (centres unmarked) : LdMetRS: 11.62%; Mtb heat-shock: 3.228%
- CCc1nnc2n1CCN(C(=O)c1nc(-c3ccco3)sc1C)C2 : LdMetRS: 20%; Mtb heat-shock: -19.13%